SMILES strings stand for the structures. The list shows a part of the results. Single values are uncertain, as repeats are few or missing.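 The apoptosis fraction was the count of cleaved-PARP antibody-stained nuclei relative to all DNA-stained nuclei, imaged in 1,536-well plates. Screening doses were set so most cells survived, and baseline and induced cleaved-PARP levels vary greatly across cell lines.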

This assay deals with UACC62. Nature of the assay: cleaved PARP positive nuclei fraction relative to DMSO control; melanoma cells; higher = more apoptosis. Conditions: library dose: low library concentration; 72 h.
For `Cc1cc(SCc2sc(-c3ccc(C(F)(F)F)c(F)c3)nc2C)ccc1OCC(=O)O` + O=C(Oc1ccc([N+](=O)[O-])cc1)N1CCC(C(O)(c2ccc3c(c2)OCO3)c2ccc3c(c2)OCO3)CC1 [JZL184] (first compound 2 µM, partner dose 1 µM), the “cleaved PARP positive nuclei fraction” value came out at 127%.

Turning to `Cc1cc(SCc2sc(-c3ccc(C(F)(F)F)c(F)c3)nc2C)ccc1OCC(=O)O` + COc1cc(N2CCC(N3CCN(C)CC3)CC2)ccc1Nc1ncc(Cl)c(Nc2ccccc2S(=O)(=O)C(C)C)n1 [NVP-TAE684] (first compound 2 µM, partner dose 0.08 µM), the “cleaved PARP positive nuclei fraction” value was 125%.

As for `C[C@]12O[C@H](C[C@]1(O)CO)n1c3ccccc3c3c4c(c5c6ccccc6n2c5c31)CNC4=O` [Lestaurtinib] + COC(=O)c1sccc1S(=O)(=O)Nc1ccc(Nc2ccccc2)cc1OC [GSK0660] (first compound 0.004 µM, partner dose 1 µM), the “cleaved PARP positive nuclei fraction” value was 51%.

In the case of `C[C@]12O[C@H](C[C@]1(O)CO)n1c3ccccc3c3c4c(c5c6ccccc6n2c5c31)CNC4=O` [Lestaurtinib] + CC1(C)NC(=O)N(c2ccc([N+](=O)[O-])c(C(F)(F)F)c2)C1=O [nilutamide] (first compound 0.004 µM, partner dose 1 µM), the “cleaved PARP positive nuclei fraction” value amounted to 68.4%.

In the case of `O=C1NC(=O)/C(=C/c2ccc(-c3ccc(F)cc3O)o2)S1` + O=C(Oc1ccc([N+](=O)[O-])cc1)N1CCC(C(O)(c2ccc3c(c2)OCO3)c2ccc3c(c2)OCO3)CC1 [JZL184] (first compound 1 µM, partner dose 1 µM), the “cleaved PARP positive nuclei fraction” value was 141%.

For the origin of these results see the supplement of paper PMC4604168 (melanoma cell lines).
